Data: PubChem BioAssay AID493014 (National Center for Advancing Translational Sciences (NCATS), 2011)
The whole screen tested about 340,000 compounds, of which about 170 (0.05%) were called active. Inconclusive means that the source gave no clear call. Such entries were picked first, then a sample of the others. Calls come from the whole dose curve; as a rule, active = well fitted inhibition curve with a large enough effect in the signal ratio, with a control signal flat (not every such curve was filed as active); inconclusive = small, poorly fitted or top-dose-only effect, or effect the other way, or a change in a side signal; inactive = flat fitted curve, though single readings scatter; the % refers to the signal ratio. Where the call is inconclusive, the potency comes from a doubtful curve fit.

Assay: qHTS Assay to Find Inhibitors of Chronic Active B-Cell Receptor Signaling;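 for activity change, negative = inhibition: plate controls were basal doxycycline-induced cells for no effect and cells given 10 µM MG132 for full effect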
Conditions: ABC-DLBCL IkBa-CBG/CBR reporter, luminescence ratio (green luciferase fused to IkBa over red control in TMD8 lymphoma cells), 4 h; activity change, negative = inhibition: at 46.1 µM (top of the series)
How it was run: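 Doxycycline induced both beetle luciferases in TMD8 lymphoma cells; IKK-driven degradation limits the IkappaBalpha-fused green signal, while red luminescence normalises for cell number and nonspecific effects. Compounds tested up to 46 uM, 4 hrs.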
Potency is the fitted concentration of half-maximal effect.

| Compound | activity change, negative = inhibition | Potency |
| --- | --- | --- |
| Cc1ccc(C)c2[nH]c(=O)c(CCNC(=O)c3cc4ccccc4o3)cc12 | inconclusive: 0.402% |  |
| Cc1ccc(/C=N/NC(=O)CSc2nnc(-c3ccc(Cl)cc3)n2-c2ccccc2)o1 | inconclusive: -3.69% |  |
| COc1ccc(/C(N)=N/OC(=O)COc2ccccc2Cl)cc1 | inconclusive: 2.17% |  |
| O=c1[nH]c(CN2CCN(S(=O)(=O)/C=C/c3ccccc3)CC2)nc2cc(Cl)ccc12 | inconclusive: -1.62% |  |
| O=C(N/N=C/c1ccncc1)c1cccc(S(=O)(=O)Nc2ccc(Cl)cc2)c1 | inactive: 11.2% |  |
| COc1ccccc1C(=O)COC(=O)c1cc([N+](=O)[O-])ccc1N1CCOCC1 |  | inconclusive: 16.4 µM [falling, partial curve, poor fit] |
| Cc1cccc(N(C(=O)Nc2ccc(Cl)cc2)C2=NCC(C)S2)n1 (stereo not drawn) | inconclusive: 4.47% |  |
| CC(=O)c1cccc(NC(=O)N2CCCC2C(=O)NCc2ccc(F)cc2)c1 (stereo not drawn) | inconclusive: -1.28% |  |
| COc1ccc2c(c1)C=C(CN1CCC(CO)(CCc3ccccc3)CC1)CO2 | inactive: -7.11% |  |
| CCCOc1ccc(C(F)(F)F)cc1NS(=O)(=O)c1ccc(Cl)nc1 | inconclusive: 4.8% |  |
| Cn1c(/C(C#N)=C/c2ccc(-c3ccc(S(N)(=O)=O)cc3)o2)nc2ccccc21 | inconclusive: 0.793% |  |
| COc1cc(/C=N/NC(=O)c2cc(-c3ccccc3OC(C)C)nc3ccccc23)ccc1O | inconclusive: -15.3% |  |
| CCCCCc1nc2sc3c(c2c(=O)n1NC(=O)c1ccc([N+](=O)[O-])cc1)CC(C)(C)OC3 |  | inconclusive: 20.6 µM [falling, partial curve] |
| Cc1ccc(N/C=C/C(=O)C(C)(C)C)c(O)c1 |  | inconclusive: 20.6 µM [falling, partial curve] |
| Cc1cc2nc3n(c2cc1C)CCCN3 | inactive: -0.105% |  |
| CCN(C(=O)COC(=O)/C=C/c1cnc2ccccc2n1)C1CCS(=O)(=O)C1 (stereo not drawn) | inconclusive: -17.4% |  |
| O=C(CN(c1cccc(C(F)(F)F)c1)S(=O)(=O)c1ccc(Cl)c([N+](=O)[O-])c1)NCc1ccccc1Cl | inconclusive: -12.3% |  |
| CC(C)c1cc(C(=O)Nc2sc3c(c2C#N)CCC3)no1 | inconclusive: -2.39% |  |
| COc1ccccc1C/C(N)=N/OC(=O)COc1cccc(C)c1 | inconclusive: 4.44% |  |
| C/C(=N\OC(=O)c1cccc(Cl)c1)c1sc(C)nc1C | inconclusive: 3.04% |  |
| COCCNC(=O)CSC1=N/C(=C/c2ccc(Cl)c(Cl)c2)C(=O)N1c1ccccc1F | inactive: -9.56% |  |
| O=C(Nc1cccnc1)OC1CCCC1 | inconclusive: -5.54% |  |
| CC(=O)Nc1nc2c(s1)C(=O)NCC(C)(C)C2 | inconclusive: 4.83% |  |
| CCN(CC)CCCN(C(=O)c1ccco1)c1nc(-c2ccc(C)cc2)cs1 |  | inconclusive: 11.2 µM [falling, single point] |
| CCC1=NN(C(=O)C(=O)Nc2ccc(Br)cc2)C(O)(C(F)(F)F)C1 (stereo not drawn) |  | inconclusive: 12.6 µM [falling, single point] |
| CC1(C)CC(=O)C(C(C#Cc2ccccc2)C2=C(O)CC(C)(C)CC2=O)=C(O)C1 |  | inconclusive: 11.2 µM [falling, single point] |

Two entries from above in another layout.
COc1ccc2c(c1)C=C(CN1CCC(CO)(CCc3ccccc3)CC1)CO2
  activity change, negative = inhibition: inactive: -7.11%
CCN(CC)CCCN(C(=O)c1ccco1)c1nc(-c2ccc(C)cc2)cs1
  Potency: inconclusive: 11.2 µM [falling, single point]

More structures follow.

| Compound | activity change, negative = inhibition | Potency |
| --- | --- | --- |
| CC(=O)Nc1cccc(C(=O)OCC(=O)c2ccc3c(c2)OCO3)c1 |  | inconclusive: 20.6 µM [falling, single point] |
| Cc1nn2c(C)c(C(=O)Nc3ccccc3)cnc2c1-c1ccccc1 | inconclusive: 17.2% |  |
| CN(C)C(=S)Nc1cccc(C(F)(F)F)c1 | inconclusive: -25.6% |  |
| COc1ccc(N(C(=O)C2CCCCC2)C2C=CS(=O)(=O)C2)c(OC)c1 (stereo not drawn) | inconclusive: 7.9% |  |
| COc1ccc(NC(=S)SC)cc1OC | inconclusive: -5.02% |  |
| Cc1ccc(S(=O)(=O)N2CCC(=O)N(CCOC(=O)Nc3cc(C)cc(C)c3)CC2)cc1 | inconclusive: -8.92% |  |
| COc1ccc(OCC(=O)Nc2ccccc2C(=O)N2CCOCC2)cc1 |  | inconclusive: 35.5 µM [falling, single point] |
| COc1ccc(OC)c(/C=N/NC(=O)CC(=O)NC2CCCCC2)c1 | inconclusive: -15.4% |  |
| COc1cccc(-c2c(-c3cc(OC)cc(OC)c3)n(C)c3ccc(-c4cccc5[nH]ccc45)cc23)c1 | inconclusive: 12.4% |  |
| CCOC(=O)CSc1nc2c(c(-c3ccc(C)o3)c1C#N)CCCC2 | inconclusive: -17.8% |  |
| c1ccc(C(Cc2nc(-c3ccccn3)no2)c2ccccc2)cc1 |  | inconclusive: 13 µM [falling, partial curve, poor fit] |
| Cn1nc(C(F)(F)F)c2cc(NC(=O)OCc3ccc(F)cc3)sc21 | inconclusive: 11.2% |  |
| COc1cccc(-n2c(SCC(=O)Nc3cc(C)on3)nc3c([nH]c4ccccc43)c2=O)c1 | inactive: -2.16% |  |
| Cc1ccc(S(=O)(=O)N2CCN(C(=O)C3CC3C)CC2)c(C)c1 (stereo not drawn) | inconclusive: -19.6% |  |
| Cc1ccccc1OCCn1c(CCNC(=O)C(C)C)nc2ccccc21 |  | inconclusive: 16.4 µM [falling, partial curve] |
| O=C(CSCc1cnn(-c2ccccc2)c1-n1cccc1)NCc1cccs1 | inconclusive: 18.8% |  |
| Cc1cccc(NC(=S)NCCC(c2ccccc2)c2ccccc2)c1 | inconclusive: 4% |  |
| CC(=O)N(c1ccccc1C)C1CCCC1 | inactive: -0.157% |  |
| Cc1ccc(N=Cc2c(O)ccc3ccccc23)cc1F |  | inconclusive: 29.1 µM [falling, partial curve, poor fit] |
| Cc1ccc(CN2CCN(Cc3ccccc3)C(CCO)C2)s1 (stereo not drawn) | inconclusive: 0.611% |  |
| CN=C(Nc1ccccc1)SC1CC(=O)N(c2cccc(OC)c2)C1=O (stereo not drawn) | inconclusive: -3.42% |  |
| O=C(N/N=C/c1cccc(OCC(=O)N2CCCC2)c1)C(=O)Nc1ccccc1F |  | inconclusive: 25.9 µM [falling, partial curve, poor fit] |
| CCN1CC(CN(C)Cc2cn(-c3cccc(C)c3)nc2-c2cccc(F)c2)CC1=O (stereo not drawn) | inconclusive: -17% |  |
| CCCc1[nH]n(-c2nc3ccccc3s2)c(=O)c1C=NCCCOC |  | inconclusive: 22.4 µM [falling, single point] |
| COc1cc2c(cc1NC(=O)CCC(=O)O)oc1ccccc12 |  | inconclusive: 12.6 µM [falling, partial curve] |
| Cc1ccc(Nc2nnc(SCC(=O)Nc3ccc(S(=O)(=O)N4CCOCC4)cc3)s2)cc1 |  | inconclusive: 29.1 µM [falling, single point] |

| Compound | activity change, negative = inhibition | Potency |
| --- | --- | --- |
| CCOC(=O)C1=C(COC(=O)c2cc(OC)c(OC)c(OC)c2)NC(=O)NC1C (stereo not drawn) |  | inconclusive: 10.3 µM [falling, partial curve] |
| C/C=C/C(=O)Nc1cccc(C2=NOC3(C2)C[C@@H](C(N)=O)N(C(=O)c2cc([N+](=O)[O-])cc([N+](=O)[O-])c2C)C3)c1 (stereo partly drawn) | inconclusive: -0.551% |  |
| O=C(N/N=C/c1ccsc1)c1ccc2c(c1)OCO2 |  | inconclusive: 3.66 µM [falling, full curve] |
| COc1cc2c(cc1OC)C(c1ccc(-c3ccc(Cl)cc3Cl)o1)=NCC2 | inconclusive: -22% |  |
| C=C(C)Cn1c(SCC(=O)N/N=C/c2c(O)ccc3ccccc23)nc2ccccc2c1=O | inactive: -0.838% |  |
| COC(=O)C1=C(C)N(C)C(C)=C(C(=O)OC)C1c1ccc(Cl)cc1 | inactive: -18.4% |  |
| CC(C)c1nnc(NC(=O)c2cc3ccccc3o2)s1 | inconclusive: 340% |  |
| CC(=O)NCC1CCCN(C(=O)c2ccc(OC3CCN(Cc4ccccn4)CC3)cc2)C1 (stereo not drawn) | inconclusive: 10.7% |  |
| Clc1ccc(OCCn2ccnc2)c(Br)c1 | inactive: 26.7% |  |
| O=S(=O)(c1cccc2cccnc12)N1CCN(Cc2ccc3c(c2)OCO3)CC1 | inconclusive: 0.87% |  |
| O=C(c1ccc(CS(=O)c2ccccc2Cl)o1)N1CCCCCC1 (stereo not drawn) | inactive: 0.39% |  |
| O=C(N=C1SC2CS(=O)(=O)CC2N1c1c(Cl)cccc1Cl)C1CC1 (stereo not drawn) | inactive: -8.15% |  |
| COc1ccc(N2CCN(C(=O)Cn3nnc(-c4cccs4)n3)CC2)cc1 | inactive: -1.49% |  |
| O=C(Cc1ccc(-n2c(=S)[nH]c3ccccc3c2=O)cc1)N1CCN(c2ccccc2)CC1 | inconclusive: -1.79% |  |
| Cn1cc(C(=O)Nc2ccc(F)c(F)c2)cn1 | inconclusive: 20.1% |  |
| C#CCOCCOCCOCCNc1nc(N2CCN(C(=O)CCCCCCCCCCNC(=O)Cn3cc(CCCCCN)nn3)CC2)nc(N2CCN(C(=O)CCCCCCCCCCNC(=O)Cn3cc(C[C@@H](C)O)nn3)CC2)n1 | inconclusive: 7.7% |  |
| O=C(Oc1cccc(/C=N/NC(=O)c2ccccn2)c1)c1ccc([N+](=O)[O-])cc1 | inconclusive: 2.9% |  |
| Cc1onc(-c2ccccc2)c1C(=O)OCC(=O)c1ccccc1 | inconclusive: -3.44% |  |
| COc1cc(-c2cc(C(=O)N(C)Cc3ccccc3)c3ccccc3n2)cc(OC)c1OC | inconclusive: -18.1% |  |
| c1ccc(-c2csc(NNC3=NCCCCC3)n2)cc1 |  | inconclusive: 20.6 µM [falling, partial curve] |
| Fc1ccc(OCc2nc3ccccc3s2)cc1 |  | inconclusive: 14.1 µM [falling, single point] |
| COc1cccc(NC(=O)CN(C)C(=O)c2cc3c(s2)CCC3)c1 | inactive: -0.188% |  |
| CN(C)c1ccc(/C=N/NC(=O)c2cnc3ccccc3c2)cc1 | inconclusive: 9.23% |  |
| NC(N)=Nc1nc(-c2ccccc2)c2ccccc2n1 |  | inconclusive: 1 µM [rising, full curve] |
| CCOc1cccc(C(=O)Nc2nccs2)c1 | inconclusive: -13.9% |  |
| Cc1cc(=O)oc2cc(NC(=O)c3ccccc3C(=O)O)ccc12 |  | inconclusive: 20 µM [falling, partial curve, poor fit] |

Reprinted from above, four compounds:

| Compound | activity change, negative = inhibition | Potency |
| --- | --- | --- |
| CC(=O)Nc1nc2c(s1)C(=O)NCC(C)(C)C2 | inconclusive: 4.83% |  |
| CCN(CC)CCCN(C(=O)c1ccco1)c1nc(-c2ccc(C)cc2)cs1 |  | inconclusive: 11.2 µM [falling, single point] |
| CCC1=NN(C(=O)C(=O)Nc2ccc(Br)cc2)C(O)(C(F)(F)F)C1 (stereo not drawn) |  | inconclusive: 12.6 µM [falling, single point] |
| CC1(C)CC(=O)C(C(C#Cc2ccccc2)C2=C(O)CC(C)(C)CC2=O)=C(O)C1 |  | inconclusive: 11.2 µM [falling, single point] |
